From PubChem BioAssay AID493027 (The Scripps Research Institute Molecular Screening Center, 2011)
Screen size: about 2,000 compounds; about 45 (2%) were called active.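 The calls were made as follows: active = inhibition above the screen-wide mean inhibition plus 3 SD (cut at about 44% in these data); inactive = the rest.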 Some of the results follow. Where a SMILES comes first, the peptide text is derived from it. [ ]: non-standard residue; d: D form. ξ: configuration not given here. ξV = CC(C)C(N)C(=O)O

Protein sequences, listed by entry. Tags and fused reporters are not part of them. Lines headed by an entry give the natural chain unless they say otherwise; changes in a name come on top.
UniProt O60240: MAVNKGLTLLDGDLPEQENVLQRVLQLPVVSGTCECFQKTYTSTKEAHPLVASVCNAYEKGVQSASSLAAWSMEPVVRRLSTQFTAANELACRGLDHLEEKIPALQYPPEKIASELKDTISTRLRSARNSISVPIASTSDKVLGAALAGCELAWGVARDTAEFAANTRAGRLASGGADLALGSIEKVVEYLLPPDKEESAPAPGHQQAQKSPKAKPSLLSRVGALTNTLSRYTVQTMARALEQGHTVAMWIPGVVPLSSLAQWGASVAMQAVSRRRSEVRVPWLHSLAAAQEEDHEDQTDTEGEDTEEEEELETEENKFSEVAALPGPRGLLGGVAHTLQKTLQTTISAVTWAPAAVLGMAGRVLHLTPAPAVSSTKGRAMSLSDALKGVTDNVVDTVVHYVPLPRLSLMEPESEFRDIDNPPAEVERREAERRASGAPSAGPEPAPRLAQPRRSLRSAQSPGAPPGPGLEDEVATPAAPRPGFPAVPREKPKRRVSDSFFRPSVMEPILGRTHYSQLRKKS
UniProt Q8WTS1: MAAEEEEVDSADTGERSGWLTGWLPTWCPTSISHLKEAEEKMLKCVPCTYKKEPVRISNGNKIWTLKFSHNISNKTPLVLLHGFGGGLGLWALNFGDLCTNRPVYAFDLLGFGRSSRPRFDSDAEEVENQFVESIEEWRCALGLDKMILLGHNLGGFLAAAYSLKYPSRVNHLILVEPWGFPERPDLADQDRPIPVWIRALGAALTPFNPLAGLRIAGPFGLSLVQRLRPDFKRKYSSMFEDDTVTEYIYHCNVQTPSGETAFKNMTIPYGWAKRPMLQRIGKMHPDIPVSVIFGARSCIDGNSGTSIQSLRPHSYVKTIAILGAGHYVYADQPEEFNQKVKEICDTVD

What follows are compounds tested against Perilipin-1 (Homo sapiens) + 1-acylglycerol-3-phosphate O-acyltransferase ABHD5 (Homo sapiens) (UniProt O60240+Q8WTS1) (assay: ABHD5-PLIN1 interaction inhibitors, pilot screen, cell lysate, split luciferase complementation, luminescence, NIH validation set (AID 493027;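 also: 0% = DMSO wells with the 100% control not disclosed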)). Settings: split G. princeps luciferase complementation, 4 h; at 7.9 µM, active compounds read high.
For CCN1/C(=C/C=C/C=C/c2sc3ccccc3[n+]2CC)Sc2ccccc21, the inhibition was active: 52.7%. With O=C(CN1C(=O)c2ccccc2C1=O)Nc1cccc([N+](=O)[O-])c1 the inhibition was inactive: -6.73%. For O=c1[nH]cnc2c1ncn2[C@@H]1O[C@H](CO)[C@@H](O)[C@H]1O, the inhibition was inactive: -1.58%. CCc1nc2ccccc2n1Cc1ccc(OC)c(OC)c1 was tested, and the inhibition was inactive: 0.12%. For C[C@@H]1C[C@H]2[C@@H]3C[C@H](F)C4=CC(=O)C=C[C@]4(C)[C@@]3(F)[C@@H](O)C[C@]2(C)[C@@]1(O)C(=O)COC(=O)C(C)(C)C, the inhibition was inactive: 6.23%. With COc1ccc(CCN=CC2=C(O)CC(C)(C)CC2=O)cc1 the inhibition was inactive: -4.85%. With C=CCNC(=O)c1ccc(-c2cccc([N+](=O)[O-])c2)o1 the inhibition was inactive: -9.66%. For CC(C)CCC1(CCNC(C)c2cccs2)CCOC(C)(C)C1 (centres undefined), the inhibition was inactive: -4.9%. With COc1ccc(CC(=O)c2c(O)cc(O)cc2O)cc1OC the inhibition was inactive: 7.05%. COc1ccc(NC(=O)CC2C(=O)N(C)C(=S)N2Cc2ccncc2)cc1 (centres undefined) was tested, and the inhibition was inactive: -1.63%. For Nc1ccn([C@@H]2O[C@H](CO)[C@@H](O)[C@@H]2O)c(=O)n1, the inhibition was inactive: -6.44%. With NC(N)=N/N=C/c1cccc(Cl)c1Cl the inhibition was inactive: -10%. For COc1cc2c(cc1OC)-c1cc(NC3CCCCCC3)nc(=O)n1CC2, the inhibition was inactive: 12.8%. In the case of CCOc1cc2c(cc1OCC)C(c1ccccc1)N(c1ccc(C(=O)O)cc1)C(=O)C2 (centres undefined), the inhibition is reported as inactive: 4.36%. For O=C(CCN1CCC(c2ccccc2)C1)c1ccc2c(c1)OCCO2 (centres undefined), the inhibition was inactive: 30.4%. With c1ccc(Cn2nnc3cnccc32)cc1 the inhibition was inactive: -3.96%. For CCOc1ccc(C(=O)/C=C/c2cc(OC)c(OC)c(OC)c2)cc1, the inhibition was inactive: 22.5%. In the case of CC(=O)Nc1nc(CCC(C)C)cc2c1c(=O)oc1ccccc12, the inhibition is reported as inactive: -9.01%. With CC(COc1ccccc1)NC(C)C(O)c1ccc(O)cc1 (centres undefined) the inhibition was inactive: -4.08%. CC(C)(C)c1ccc(C(O)CCCN2CCC(C(O)(c3ccccc3)c3ccccc3)CC2)cc1 (centres undefined) was tested, and the inhibition was inactive: -10.9%. With CCc1ccc(CN(C)Cc2nc(Cc3ccccc3)no2)nc1 the inhibition was inactive: 1.2%. O=C(O)CCCCCN1C(=O)C(=O)/C(=C(/O)c2ccccc2)C1c1ccccc1 (centres undefined) was tested, and the inhibition was inactive: -14.4%. For Cn1c2c(c(=O)[nH]c1=O)C(c1ccc(O)cc1)C1=C(N2)c2ccccc2C1=O (centres undefined), the inhibition was inactive: 8.86%. With O=c1c2ccccc2nc2n1-c1ccccc1CCC2 the inhibition was inactive: -5.25%. For CN(C)CCOCCOc1ccc(Cl)cc1Br, the inhibition was inactive: -2.32%. For O=C(Oc1cccccc1=O)c1ccccc1, the inhibition was inactive: -14.4%. Cc1nonc1CN(C)C(=O)c1ccc(OC2CCN(Cc3ccccn3)CC2)cc1 was tested, and the inhibition was inactive: -6.55%. COc1ccc(-c2onc(C)c2-c2ccc(C(=O)OC(C)C)o2)c(O)c1 was tested, and the inhibition was inactive: 1.7%. In the case of C=CCNC(=S)N1CCc2c([nH]c3ccccc23)C1C (centres undefined), the inhibition is reported as inactive: -7%. With OC[C@H]1O[C@@H](n2cnc3c(Nc4ccccc4)ncnc32)[C@H](O)[C@@H]1O the inhibition was inactive: -8.54%. In the case of Cc1cc(-c2nn(-c3ccccc3F)cc2CN2CCCC(O)C2)c(C)s1 (centres undefined), the inhibition is reported as inactive: -4.69%. In the case of Cc1cc(-c2ccccc2)nnc1NCCN1CCOCC1, the inhibition is reported as inactive: -9.05%. In the case of OCCN(Cc1nc(-c2ccc3c(c2)OCO3)no1)Cc1cccs1, the inhibition is reported as inactive: 3.67%. With CCOc1ccccc1C(=O)NCCC(=O)O the inhibition was inactive: -2.91%. COc1cc2c(cc1OC)CN(C(=O)c1ccc(S(=O)(=O)N(C)c3ccccc3)cc1)CC2 was tested, and the inhibition was inactive: 14.8%. With CSc1ccc2c(c1)N(CCC1CCCCN1C)c1ccccc1S2 (centres undefined) the inhibition was inactive: 12.7%. For c1ccc(Cn2ncc3c(Nc4ccccc4)ncnc32)cc1, the inhibition was inactive: 0.25%. For CCCC(CCC)C(=O)OC1C[C@H]2CC[C@@H](C1)[N+]2(C)C (some centres undefined), the inhibition was inactive: -8.54%. O=C(OCCN1CCOCC1)c1cccs1 was tested, and the inhibition was inactive: -1.51%. In the case of O=c1nc2sc3ccccc3n2c(=O)n1-c1ccc(Cl)cc1, the inhibition is reported as inactive: 2.92%. In the case of COc1ccc(CCn2c(C)nc3c(c(=O)c4ccccc4n3C)c2=O)cc1, the inhibition is reported as inactive: 15.1%. With Cc1ccc(S(=O)(=O)NC(=O)NN2CCCCCC2)cc1 the inhibition was inactive: -16.1%. In the case of COc1ccccc1NC(=O)C12CCC(C)(C(=O)C1)C2(C)C (centres undefined), the inhibition is reported as inactive: -0.67%. For C[C@]12CC[C@@H]3c4ccc(OS(=O)(=O)O)cc4CC[C@H]3[C@@H]1CCC2=O, the inhibition was inactive: 1.29%. In the case of COC1(C)CC2C(CC1OC(=O)c1cc([N+](=O)[O-])cc([N+](=O)[O-])c1)C2(C)C (centres undefined), the inhibition is reported as inactive: -17.4%. For CCN(CC)CCOC(=O)C(c1ccccc1)c1ccccc1, the inhibition was inactive: -2.52%. OC(CCCN1CCCCC1)(c1ccccc1)c1ccccc1 was tested, and the inhibition was inactive: 1.09%. With Cn1nc(-c2ccccn2)nc2c(=O)n(C)c(=O)nc1-2 the inhibition was inactive: -29.3%. In the case of CCN(CC)CCNc1ccc(CO)c2sc3ccccc3c(=O)c12, the inhibition is reported as inactive: 2.54%. With Cc1ccc(O)c(CCc2ccccc2)n1 the inhibition was inactive: -1.66%. In the case of CCCCC[C@H](O)/C=C/[C@@H]1[C@@H](C/C=C\CCCC(=O)OC)[C@@H](O)C[C@H]1O, the inhibition is reported as inactive: -10.7%. In the case of Fc1cc(F)cc(NC(=S)NCCCN2CCOCC2)c1, the inhibition is reported as inactive: -1.84%. In the case of COc1ccc(C=O)c(OC)c1, the inhibition is reported as inactive: 0.71%. With Cc1ccsc1/C=C/C1=NCCCN1C the inhibition was inactive: 1.11%. CC1(C)C2CCC1(C(=O)O)c1nc3ccccc3nc12 (centres undefined) was tested, and the inhibition was inactive: -5.53%. With CC(OC(=O)c1cc(=O)[nH]c2ccccc12)C(=O)c1ccccc1 (centres undefined) the inhibition was inactive: 4.11%. CCc1cc2c(=O)c(-c3nc(C)cs3)c(CCCC(=O)O)oc2cc1O was tested, and the inhibition was inactive: -2.3%. For Cc1cnc(C(=O)NCCc2ccc(S(=O)(=O)NC(=O)NC3CCCCC3)cc2)cn1, the inhibition was inactive: 4.38%. For O=C(/C=C/c1ccccc1)/C=C/c1ccccc1, the inhibition was active: 88.9%. Cc1ccccc1C(=O)Nc1ccccc1C(=O)NCC(C)C was tested, and the inhibition was inactive: -6.24%. With COc1ccc2[nH]c(=O)c(CN(C(=O)c3ccco3)C(C)C)cc2c1 the inhibition was inactive: 0.59%. For CCCCNc1ccc(C(=O)OCCN(C)C)cc1, the inhibition was inactive: -2.61%. For O=C(CCSc1ccccc1)N1CCCC1, the inhibition was inactive: -10.2%. COc1ccccc1C(CCN(Cc1ccccc1)C(C)=O)c1ccco1 (centres undefined) was tested, and the inhibition was inactive: 9.44%. For CCSC(SCC)[C@H](O)[C@@H](O)[C@H](O)[C@H](O)CO, the inhibition was inactive: -4.44%. Cc1ccc(NCCC(=O)c2ccccc2)cc1Cl was tested, and the inhibition was inactive: -2.97%. For Cc1ccccc1C(OCCN(C)C)c1ccccc1 (centres undefined), the inhibition was inactive: 0.55%. With NCCCC(N)(C(=O)O)C(F)F (centres undefined) the inhibition was inactive: -9.29%. In the case of COc1cc(/C=C(\C#N)C(=O)N2CCc3ccccc32)ccc1O, the inhibition is reported as inactive: 42.5%. COc1c2ccoc2nc2c(OC)cccc12 was tested, and the inhibition was inactive: -3.07%. For CC(C)=CCC(C)(C)/C=N/NC(N)=O, the inhibition was inactive: -12.2%. With CC(C)CN1CC(C(=O)O)CC1=O (centres undefined) the inhibition was inactive: 0.07%. For CNc1c2c(nn1C)CCCC2, the inhibition was inactive: -8.89%. CC(=O)SC1CC2=CC(=O)CCC2(C)C2CCC3(C)C(CCC34CCC(=O)O4)C12 (centres undefined) was tested, and the inhibition was inactive: 5.44%. COC(=O)C1=C(C)NC(C)=C(C(=O)OCCN(C)Cc2ccccc2)C1c1cccc([N+](=O)[O-])c1 (centres undefined) was tested, and the inhibition was inactive: -2.37%. With COc1ccc(-c2nnc(-c3cc4c(ccc5ccccc54)oc3=O)o2)cc1 the inhibition was inactive: 1.44%. c1ccc(Nc2cccc3c(Nc4ccccc4)cccc23)cc1 was tested, and the inhibition was inactive: 0.52%. For O=C1C2C3C=CC(C4CC34)C2C(=O)N1/N=C/c1ccc(-c2ccc([N+](=O)[O-])cc2)o1 (centres undefined), the inhibition was inactive: 5.88%. With CC(C)NC(=O)c1ccc(C(C)C)cc1 the inhibition was inactive: -3.94%. CCc1oc2ccccc2c1C(=O)c1cc(Br)c(O)c(Br)c1 was tested, and the inhibition was active: 57.3%. For COc1ccc(Cc2nc(-c3ccc(Br)cc3)no2)cc1, the inhibition was inactive: -12%. For CC(C)(C)NCC(O)c1cc(O)cc(O)c1 (centres undefined), the inhibition was inactive: -5.33%. In the case of COc1cc(C(=O)Nc2ccc(N(C)C)cc2)c([N+](=O)[O-])cc1OC, the inhibition is reported as inactive: -0.33%. In the case of O=C1[C@@H]2CSCN2C(=O)CN1Cc1ccc(F)cc1, the inhibition is reported as inactive: -14.4%. In the case of C=C(C)C(=O)Nc1ccc(NC(C)C)cc1, the inhibition is reported as inactive: 0.62%. For C#C[C@]1(O)CC[C@H]2[C@@H]3CCC4=C(CCC(=O)C4)[C@H]3CC[C@@]21C, the inhibition was inactive: 5.83%. In the case of Cc1nc(NCc2ccco2)c(C#N)c2c1COC(C)(C)C2, the inhibition is reported as inactive: -8.66%. For COc1ccc(-c2nc(NC(C)=O)sc2-c2ccc(OC)cc2)cc1, the inhibition was inactive: 11.4%. In the case of CC(=O)NC(Cc1c[nH]c2ccccc12)C(=O)N/N=C/c1ccccc1 (centres undefined), the inhibition is reported as inactive: 2%. For CN(C)C(=O)CCCCCCCCC(=O)N(C)C, the inhibition was inactive: 0.84%. With CC(C)Oc1cccc(C(=O)N2CCCC2)c1 the inhibition was inactive: -2.88%. With C[N+](C)(C)CCOP(=O)([O-])OC[C@H](O)CO the inhibition was inactive: -1.99%. For O=S(=O)(CCc1nc2ccccc2[nH]1)c1ccc(Cl)cc1, the inhibition was inactive: -9.54%. In the case of CC(=O)NC(C(=O)NCC(N)=O)C(C)C (centres undefined) (Ac-[ξV]-Gly-NH2), the inhibition is reported as inactive: 0.28%. CC(C)Cc1ccc(C(C)C(=O)O)cc1 (centres undefined) was tested, and the inhibition was inactive: -4.08%. In the case of COCCc1ccc(OCC(O)CNC(C)C)cc1 (centres undefined), the inhibition is reported as inactive: -13.7%. For O=C1CN(O)C=C2N=c3ccccc3=C2N1c1ccc([N+](=O)[O-])cc1, the inhibition was inactive: 7.75%. CC(C)(C)NCC(O)COc1cccc2c1C[C@H](O)[C@H](O)C2 (some centres undefined) was tested, and the inhibition was inactive: -0.3%. In the case of COCCCNc1nc2c([nH]1)c(=O)[nH]c(=O)n2C, the inhibition is reported as inactive: -10.5%.
